Results are given in words; binding and its absence hold for the method and conditions named. Some entries that bind do so weakly or less than the wild type.
Target: T1, SEMA4A expressed on transfected H9 cells (human) (UniProt Q9H3S1)
T1 sequence: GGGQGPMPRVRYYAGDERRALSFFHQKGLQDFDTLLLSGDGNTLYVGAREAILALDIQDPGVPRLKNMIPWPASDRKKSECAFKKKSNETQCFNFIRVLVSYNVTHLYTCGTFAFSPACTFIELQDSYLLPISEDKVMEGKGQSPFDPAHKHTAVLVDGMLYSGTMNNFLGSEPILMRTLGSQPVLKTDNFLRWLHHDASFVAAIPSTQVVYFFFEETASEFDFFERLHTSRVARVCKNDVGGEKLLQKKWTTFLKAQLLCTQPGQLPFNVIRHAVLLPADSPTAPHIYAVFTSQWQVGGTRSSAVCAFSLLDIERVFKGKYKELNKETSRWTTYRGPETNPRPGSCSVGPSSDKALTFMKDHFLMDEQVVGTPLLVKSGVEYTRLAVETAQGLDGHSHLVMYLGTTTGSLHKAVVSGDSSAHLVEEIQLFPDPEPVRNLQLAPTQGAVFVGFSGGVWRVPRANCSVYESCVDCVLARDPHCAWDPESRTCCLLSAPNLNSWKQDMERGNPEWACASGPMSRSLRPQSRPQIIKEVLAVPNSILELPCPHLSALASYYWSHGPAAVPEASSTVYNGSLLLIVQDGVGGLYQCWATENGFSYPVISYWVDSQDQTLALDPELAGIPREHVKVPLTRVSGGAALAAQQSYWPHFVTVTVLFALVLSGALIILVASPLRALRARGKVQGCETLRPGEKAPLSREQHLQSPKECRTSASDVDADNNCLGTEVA
Assay: flow cytometry on cells; SEMA4A-transfected H9 cells stained with ILT-4-Fc, with or without an excess of anti-SEMA4A mAb or mIgG; hIgG as control; only the binder purified

Sequences of proteins named here, by UniProt entry; tags and fusion partners are left off. Residues count along the entry.
UniProt Q8N423, residues 22-460: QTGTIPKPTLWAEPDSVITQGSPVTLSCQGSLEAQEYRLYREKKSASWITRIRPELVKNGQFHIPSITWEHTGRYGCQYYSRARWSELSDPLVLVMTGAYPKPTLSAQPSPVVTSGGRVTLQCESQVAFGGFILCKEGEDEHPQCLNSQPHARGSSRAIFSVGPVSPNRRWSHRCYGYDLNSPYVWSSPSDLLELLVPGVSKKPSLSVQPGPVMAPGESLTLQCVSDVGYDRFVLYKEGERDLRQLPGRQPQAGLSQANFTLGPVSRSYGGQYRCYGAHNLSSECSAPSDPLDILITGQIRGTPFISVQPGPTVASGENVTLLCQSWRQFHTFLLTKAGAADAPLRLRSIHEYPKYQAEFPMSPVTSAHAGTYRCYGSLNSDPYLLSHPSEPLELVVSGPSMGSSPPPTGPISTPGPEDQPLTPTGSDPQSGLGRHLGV

binding: binds
Substance: recombinant ILT-4-Fc fusion protein (R&D Systems) (from UniProt Q8N423 22-460)
